Test results from US11913924B2, “Ion generation using modified wetted porous materials” (Purdue Research Foundation, priority 2011, dated 2024).

Experiments:
[1] = Paper spray mass spectrometry of 10 μL fresh whole blood with pre-spotted alum coagulant, limit of detection; set-up: species or system bovine; conditions: paper spray MS, TSQ, SRM; pre-spotted alum and internal standard
[2] = Paper spray with handheld Mini 11 mass spectrometer, drugs in dried blood spots, LOQ; set-up: species or system bovine; conditions: for LOQ with Chromatography paper: ET31 chromatography paper, 9:1 methanol/water; for LOQ with silica coated paper: 9:1 dichloromethane/isopropanol
[3] = Paper spray with triple quadrupole (TSQ), drugs in dried blood spots on silica-coated paper, LOQ; set-up: species or system bovine; conditions: 9:1 dichloromethane/isopropanol, 5 μL dried blood spots
[4] = Paper spray mass spectrometry of 15 μL dried blood spots, limit of detection; set-up: species or system bovine; conditions: paper spray MS, TSQ, SRM; blood dried two hours, no coagulant
[5] = Paper spray of blood, air-dry method versus pre-spotted drying agent (MgSO4), limit of detection
[6] = Paper spray of fresh liquid bovine whole blood on printer paper, LOQ
[7] = Paper spray of cotinine in fresh liquid saliva and urine, LOQ

Structure (SMILES): CC[C@@]1(O)C(=O)OCc2c1cc1n(c2=O)Cc2cc3c(CN(C)C)c(O)ccc3nc2-1 [topotecan]
- 10 μL Fresh Blood w/Alum LLOD [1]: 17 ng/mL

Structure (SMILES): CN(C)CCC=C1c2ccccc2CCc2ccccc21 [amitriptyline]
- LOQ with Chromatography paper [2]: 100 ng/mL
- LOQ with silica coated paper [2]: 10 ng/mL
- LOQ [3]: 0.1 ng/mL

Structure (SMILES): CC/C(=C(\c1ccccc1)c1ccc(OCCN(C)C)cc1)c1ccccc1 [Tamoxifen]
- 15 μL Dried Blood Spot LLOD [4]: 13 ng/mL
- LOD ([5]; drying method 2 Hours Air, IS mixed): 18 ng/mL
- LOD ([5]; drying method MgSO4, IS pre-spotted): 56 ng/mL
- 10 μL Fresh Blood w/Alum LLOD [1]: 8 ng/mL

Structure (SMILES): CN1C(=O)CC[C@H]1c1cccnc1 [cotinine]
- LOQ ([6]; 10 μL fresh bovine whole blood, printer paper, 90% dichloromethane and 10% isopropanol, TSQ): 1 ppb
- LOQ ([7]; 5 μL fresh liquid saliva, Grade 1 chromatography paper, 30 μL acetonitrile): 2 ng/mL
- LOQ ([7]; urine with 20 mM ammonium acetate added): 5 ng/mL
- lowest concentration at which cotinine could be detected ([7]; urine, acetonitrile as the solvent, no ammonium acetate): ≥ 30 ng/mL

Structure (SMILES): O=P1(N(CCCl)CCCl)NCCCO1 (stereo not shown) [Cyclophosphamide, cyclophosphamide]
- 15 μL Dried Blood Spot LLOD [4]: 13 ng/mL
- 10 μL Fresh Blood w/Alum LLOD [1]: 11 ng/mL

Structure (SMILES): CN1CCCC1c1cccnc1 (stereo not shown) [nicotine]
- LOQ ([6]; 10 μL fresh blood on print paper, extracted with 10 μL acetonitrile, dried, then sprayed with 20 μL acetonitrile): 1 ppb
- LOQ ([6]; fresh bovine whole blood, printer paper, acetonitrile, TSQ): 0.1 ppb

Structure (SMILES): CCN(CC)CC(=O)Nc1c(C)cccc1C [lidocaine]
- LOQ with Chromatography paper [2]: 100 ng/mL
- LOQ with silica coated paper [2]: 20 ng/mL
- LOQ [3]: 0.1 ng/mL
